# Experimental data reported in PubChem BioAssay AID504834 (National Center for Advancing Translational Sciences (NCATS), 2011).
# The campaign covered roughly 320,000 compounds. About 22,000 (6.9%) were called active. This list was built around the results that the source calls inconclusive (neither active nor inactive); the mix of calls is not that of the screen. Calls follow the shape of the dose curve; as a rule, active = well fitted inhibition curve with a large enough effect; inconclusive = small, poorly fitted or top-dose-only effect, or another doubt; inactive = no such curve, though single readings can be large or run the other way. Potencies of inconclusive entries are doubtful fits and often do not repeat.
# Experiment: Primary qHTS for delayed death inhibitors of the malarial parasite plastid, 96 hour incubation
# Conditions: P. falciparum luciferase reporter growth; series mostly up to 28.7 µM; activity change, negative = inhibition: at the top concentration
# In short: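 P. falciparum expressing integrated firefly luciferase grown in erythrocytes (2% hematocrit, 0.05% parasitemia final) with compounds for 96 hours at 37 C, 5% CO2. Growth inhibition read as loss of luminescence after adding luciferase detection reagent.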
# % is scaled to controls: 0 for no effect and ±100 for the full control effect; potency is read from the fitted curve at half-maximal effect.
SMILES,Potency,"activity change, negative = inhibition"
CSCSC1=C(C#N)C(c2ccc(Cl)cc2)C(C(C)=O)=C(C)N1 (configuration not stated),"inconclusive: 11.7 µM [inhibitor, partial curve, poor fit]",
C/C(=N/NC(=O)c1ccncc1)c1ccc(NC(=O)c2ccccc2)cc1,"inconclusive: 5.86 µM [inhibitor, partial curve, poor fit]",
Cc1ccccc1CC(=O)N1CCCC1,"inconclusive: 10.4 µM [inhibitor, single point]",
Cc1c(Cl)cccc1NC(=S)N1CCN(c2ncccn2)CC1,"inconclusive: 0.0029 µM [inhibitor, full curve, poor fit]",
CSCCC(NS(=O)(=O)c1ccccc1F)C(=O)Nc1cccc(C)n1 (configuration not stated),,inactive: -23.2%
COc1ccc(/C=C2\SC(N)=NC2=O)cc1Br,"inconclusive: 11.7 µM [inhibitor, single point]",
Cc1ccc(NC2CCCN(C(=O)CN3C(=O)CSC3=O)C2)cc1C (configuration not stated),,inactive: 8.71%
COc1cc(O)cc(O)c1,"inconclusive: 4.26 µM [inhibitor, full curve]",
Cc1cccc(N2CCN(C(=O)c3c(C)nn(Cc4ccccc4Cl)c3C)CC2)c1C,active: 7.38 µM,
COC(=O)c1[nH]c2cc(OC)c(OC)cc2c1/C=N/Nc1ccccc1,"inconclusive: 2.08 µM [inhibitor, partial curve]",
CCCCC1(Cc2cccc([N+](=O)[O-])c2)C(=O)N(c2ccccc2)N(c2ccccc2)C1=O,"inconclusive: 4.15 µM [inhibitor, partial curve]",
Cc1ccc(S(=O)(=O)N2CCN(CC(=O)N/N=C\c3ccc(O)c(O)c3)CC2)cc1,,inactive: -21.9%
CCS(=O)(=O)N1Cc2ccccc2CC1C(=O)Nc1cccc(S(=O)(=O)N(C)C)c1 (configuration not stated),"inconclusive: 8.28 µM [inhibitor, partial curve, poor fit]",
Cc1ccc([N+](=O)[O-])cc1S(=O)(=O)Nc1ccc(C(=O)N2CCN(C(=O)c3ccco3)CC2)cc1,"inconclusive: 6.57 µM [inhibitor, partial curve, poor fit]",
O=C1CC(c2ccccc2)CC(=O)N1c1ccc(C(F)(F)F)cc1,,inactive: 26.5%
COc1ccc(OC)c(S(=O)(=O)Nc2c(C)nn(C)c2C)c1,"inconclusive: 18.5 µM [inhibitor, single point]",
CC(=O)Nc1ccc(OC(=O)c2ccco2)cc1,"inconclusive: 11.7 µM [inhibitor, single point]",
Cn1c(=O)oc2cc(S(=O)(=O)NCCN3CCN(c4ccccc4)CC3)ccc21,"inconclusive: 14.7 µM [inhibitor, single point]",
O=C(CNC(=O)c1ccc(Br)o1)OCC(=O)c1cccc([N+](=O)[O-])c1,"inconclusive: 14.7 µM [inhibitor, single point]",
O=C(CCn1c(=O)oc2ccccc21)N1CCOCC1,"inconclusive: 10.4 µM [inhibitor, partial curve, poor fit]",
O=[N+]([O-])c1ccc(NC(=S)N/C(=N/CS(=O)(=O)c2ccccc2)c2ccccc2)cc1,"inconclusive: 1.31 µM [inhibitor, partial curve, poor fit]",
COc1cc(NS(=O)(=O)c2cn(C)cn2)cc(OC)c1,"inconclusive: 18.5 µM [inhibitor, single point]",
COc1ccc2c(CC(=O)Nc3ccc(N4CCOCC4)cc3)coc2c1,"inconclusive: 11.7 µM [inhibitor, single point]",

SMILES,Potency,"activity change, negative = inhibition"
O=C1CC(c2cccc(Br)c2)c2cc3c(cc2N1)CCC3 (configuration not stated),"inconclusive: 0.522 µM [inhibitor, full curve]",
COC(=O)C1CCN(CCCOc2ccc(CN3CCN(c4ccc([N+](=O)[O-])cc4)CC3)cc2)CC1,"inconclusive: 18.5 µM [inhibitor, single point]",
O=C(NCCSc1ccccc1)c1ccc(CN2CCOCC2)cc1,,inactive: 2.83%
COc1ccnc(Oc2ccccc2)c1C(N)=O,,inactive: -8.13%
COc1ccc(S(=O)(=O)Nc2cccc(N(C)S(C)(=O)=O)c2)cc1Br,"inconclusive: 5.22 µM [inhibitor, partial curve, poor fit]",
COc1cccc(CN2CCN(c3nc4nonc4nc3N3CCCCC3)CC2=O)c1,"inconclusive: 16.5 µM [inhibitor, single point]",
CCC1(OC(=O)CN)C(=O)OCc2c1cc1n(c2=O)Cc2cc3ccccc3nc2-1 (configuration not stated),active: 0.928 µM,
CC(=O)Nc1ccc(NC(=O)COC(=O)c2c(C)nn(-c3ccccc3)c2C)cc1,"inconclusive: 6.57 µM [inhibitor, partial curve]",
CCOC(=O)C1CCN(S(=O)(=O)c2ccc3c(c2)CCN3C(=O)C2CCC2)CC1,"inconclusive: 14.7 µM [inhibitor, single point]",
COc1cc(NC(=O)CN2C(=O)c3ccccc3S2(=O)=O)cc(OC)c1,,inactive: 3.49%
CC(C)(C)c1ccc(OCc2ccc(C(=O)N/N=C/c3ccc([N+](=O)[O-])cc3)o2)cc1,,inactive: 59.2%
COc1ccc(-n2nc([N+](=O)[O-])c(=NCCc3ccc(OC)c(OC)c3)n2O)cc1,,inactive: 0%
CCCOC(=O)c1ccc(Oc2cn[nH]c2-c2ccc(OC)cc2O)cc1,"inconclusive: 18.5 µM [inhibitor, single point]",
CS(=O)(=O)N1CCN(CCN2C(=O)c3cccc4cccc(c34)C2=O)CC1,"inconclusive: 11.7 µM [inhibitor, single point]",
COc1ccc2sc(N(CCCN(C)C)C(=O)c3ccc(S(=O)(=O)N4CCCc5ccccc54)cc3)nc2c1,active: 8.28 µM,
O=C(Nc1ccc(Cl)cc1)c1cc2c(cc1O)[nH]c1ccccc12,"inconclusive: 11.7 µM [inhibitor, partial curve, poor fit]",
OC(COCc1ccccc1)CN1CCN(Cc2ccc3c(c2)OCO3)CC1 (configuration not stated),,inactive: -28.1%
CCS(=O)(=O)Nc1cccc(-c2ccc3nnc(-c4cccnc4)n3n2)c1,"inconclusive: 10.4 µM [inhibitor, partial curve, poor fit]",
CC(NCCC1(C(C)C)CCOC(C)(C)C1)c1cccs1 (configuration not stated),"inconclusive: 18.5 µM [inhibitor, single point]",
O=C(Nc1nccs1)C1CC(=O)N(c2ccc(Cl)cc2)C1 (configuration not stated),,inactive: 0.811%
Cn1cc([C@@H]2C[C@H]3CN(Cc4cccc(Cl)c4)C(=O)[C@]34CCCN24)c(-c2ccccc2)n1,active: 2.94 µM,
COC(=O)C1Cc2c([nH]c3ccccc23)C(C)N1 (configuration not stated),"inconclusive: 11.7 µM [inhibitor, single point]",
C#CCOCCOCCOCCNc1nc(N2CCN(C(=O)[C@H]([C@@H](C)CC)n3cc([C@@H](N)CC(C)C)nn3)CC2)nc(N2CCN(C(=O)[C@H](Cc3cc4ccccc4[nH]3)n3cc([C@@H](N)C(C)CC)nn3)CC2)n1 (some centres not stated),active: 1.17 µM,

SMILES,Potency,"activity change, negative = inhibition"
CCCCOc1ccc(Br)cc1/C(C)=N/NC1=NCCN1,,inactive: -9.96%
CCn1nc(C(=O)NNC(=O)C2CSC3(C)CCC(=O)N23)c2ccccc2c1=O (configuration not stated),"inconclusive: 13.1 µM [inhibitor, partial curve, poor fit]",
Cc1nn(C)c(C)c1S(=O)(=O)N(CC(=O)Nc1ccccn1)c1ccc(C(C)C)cc1,"inconclusive: 8.28 µM [inhibitor, single point]",
Cc1ccc(Cn2ccc(=O)c(Cc3c(Cl)cccc3Cl)c2C)cc1,active: 0.415 µM,
CCC1CCCCN1C(=O)COc1ccc(S(=O)(=O)N2CCOCC2)cc1Cl (configuration not stated),"inconclusive: 5.86 µM [inhibitor, partial curve, poor fit]",
Cc1ccc(/C=C(\NC(=O)c2ccccc2)C(=O)N2CCCC2C(=O)O)cc1 (configuration not stated),,inactive: 90.7%
COc1cc(C2NC(=S)NC(C)=C2C(=O)OC(C)C)ccc1OC(C)C (configuration not stated),"inconclusive: 16.5 µM [inhibitor, partial curve, poor fit]",
Clc1ccc(-c2nc(Cc3ccccc3)no2)cc1,"inconclusive: 10.4 µM [inhibitor, partial curve, poor fit]",
CC1C(=O)N2CCCc3cc(S(=O)(=O)N4CCCCC4)cc1c32 (configuration not stated),"inconclusive: 1.04 µM [inhibitor, partial curve, poor fit]",
C/C(CCc1ccccc1)=N\NC(=S)NCCc1ccccc1,"inconclusive: 14.7 µM [inhibitor, single point]",
COc1ccccc1NC(=O)c1ccc(NC(=O)CN2CCCC2)cc1,,inactive: 10.8%
Cc1ccc(S(=O)(=O)N(C)CC(=O)Nc2ccc3c(c2)OCO3)cc1,,inactive: 0.22%
N#Cc1c(-c2ccccc2Cl)cc(C2CC2)nc1N,"inconclusive: 0.165 µM [inhibitor, full curve, poor fit]",
Cc1ccc(S(=O)(=O)NC(C)C(=O)N2CCOCCOCCOCC2)cc1 (configuration not stated),,inactive: 30.2%
CCCC(=O)NC(c1ccc(OC)c(OC)c1)c1c(O)ccc2ccccc12 (configuration not stated),"inconclusive: 11.7 µM [inhibitor, single point]",
COc1cccc(C(c2c(NC(=O)c3ccccc3)sc(C)c2C)N2CCN(C)CC2)c1 (configuration not stated),"inconclusive: 11.7 µM [inhibitor, single point]",
COc1ccccc1Nc1nc2ccccc2[nH]1,"inconclusive: 14.7 µM [inhibitor, partial curve]",
Cc1ccc(Nc2ccc(-n3ccnc3)nn2)cc1C,active: 10.4 µM,
S=C(NCc1ccco1)N/N=C/c1cccnc1,"inconclusive: 11.7 µM [inhibitor, partial curve, poor fit]",
O=C(NC1=NCCS1)c1ccc(Cl)c(Cl)c1,,inactive: -0.491%
O=C(NCC(c1ccco1)N1CCCCC1)c1ccc(OCc2ccccc2)cc1 (configuration not stated),"inconclusive: 2.94 µM [inhibitor, single point]",

# 3 entries from above, ordered by heavy-atom count, low to high:
SMILES,Potency,"activity change, negative = inhibition"
O=C(Nc1ccc(Cl)cc1)c1cc2c(cc1O)[nH]c1ccccc12,"inconclusive: 11.7 µM [inhibitor, partial curve, poor fit]",
COc1ccc2c(CC(=O)Nc3ccc(N4CCOCC4)cc3)coc2c1,"inconclusive: 11.7 µM [inhibitor, single point]",
COc1ccc(-n2nc([N+](=O)[O-])c(=NCCc3ccc(OC)c(OC)c3)n2O)cc1,,inactive: 0%
